{"source": "the supplement of paper PMC4635364", "key": {"ReNCell VM [1]": {"tested_on": "ReNCell VM", "assay": "neuronal differentiation score (DCX+ cell fraction vs untreated, manual image score) (score (-3 to 3)); higher = more neuronal differentiation", "settings": "2 uM, 2 weeks"}, "ReNCell VM [2]": {"tested_on": "ReNCell VM", "assay": "dopaminergic neuron differentiation score (TH+ cell fraction vs untreated, manual image score) (score (0 to 3)); higher = more TH+ dopaminergic neuron differentiation", "settings": "2 uM, 4 weeks, BDNF 10 ng/ml + GDNF 10 ng/ml"}}, "note": "This is one part of the list. This data set is noisy: repeats of one test often differ as much as different tests do.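 Human fetal ventral-midbrain neural progenitor line ReNCell VM, differentiated without mitogens. Images stained for doublecortin (early neurons) or tyrosine hydroxylase (dopaminergic neurons) were scored by blinded raters against untreated wells (0 = no change). Repeats and both raters were averaged, and compounds averaging 2 or higher were picked as hits for retesting.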", "data": [{"smiles": "CCC(=O)OCC(=O)[C@@]1(OC(=O)CC)[C@@H](C)C[C@H]2[C@@H]3CCC4=CC(=O)C=C[C@]4(C)[C@@]3(Cl)[C@@H](O)C[C@@]21C", "values": [{"measurement": "neuronal differentiation score", "setting": "ReNCell VM [1]; library: Spectrum", "result": "inactive: 0"}, {"measurement": "dopaminergic neuron differentiation score", "setting": "ReNCell VM [2]; library: Spectrum", "result": "inactive: 0"}]}, {"smiles": "CC1CCc2c(N3CCC(O)CC3)c(F)cc3c(=O)c(C(=O)O)cn1c23", "note": "(configuration not stated)", "values": [{"measurement": "neuronal differentiation score", "setting": "ReNCell VM [1]; library: Spectrum", "result": "inactive: 0"}, {"measurement": "dopaminergic neuron differentiation score", "setting": "ReNCell VM [2]; library: Spectrum", "result": "inactive: 1"}]}, {"smiles": "CCCCNC(=O)NS(=O)(=O)c1ccc(C)cc1", "values": [{"measurement": "neuronal differentiation score", "setting": "ReNCell VM [1]; library: Spectrum", "result": "inactive: -1"}, {"measurement": "dopaminergic neuron differentiation score", "setting": "ReNCell VM [2]; library: Spectrum", "result": "inactive: 0"}]}, {"smiles": "O=C1OC(c2ccc(O)cc2)(c2ccc(O)cc2)c2ccccc21", "values": [{"measurement": "neuronal differentiation score", "setting": "ReNCell VM [1]; library: Spectrum", "result": "inactive: 0"}, {"measurement": "dopaminergic neuron differentiation score", "setting": "ReNCell VM [2]; library: Spectrum", "result": "inactive: 0"}]}, {"smiles": "CC(C(=O)O)c1ccc(CC2CCCC2=O)cc1", "note": "(configuration not stated) [loxoprofen]", "values": [{"measurement": "neuronal differentiation score", "setting": "ReNCell VM [1]; library: LOPAC", "result": "inactive: 0"}, {"measurement": "dopaminergic neuron differentiation score", "setting": "ReNCell VM [2]; library: LOPAC", "result": "inactive: 0"}]}, {"smiles": "CC1(C)Oc2ccc(C#N)cc2[C@@H](N2CCCC2=O)[C@@H]1O", "note": "[Levcromakalim]", "values": [{"measurement": "neuronal differentiation score", "setting": "ReNCell VM [1]; library: Tocriscreen", "result": "inactive: 0"}, {"measurement": "dopaminergic neuron differentiation score", "setting": "ReNCell VM [2]; library: Tocriscreen", "result": "inactive: 0"}]}, {"smiles": "CC(=O)OCC(=O)[C@H]1CC[C@H]2[C@@H]3CC=C4C[C@@H](O)CC[C@]4(C)[C@H]3CC[C@]12C", "values": [{"measurement": "neuronal differentiation score", "setting": "ReNCell VM [1]; library: Spectrum", "result": "inactive: 0"}, {"measurement": "dopaminergic neuron differentiation score", "setting": "ReNCell VM [2]; library: Spectrum", "result": "inactive: 0"}]}, {"smiles": "CNC(=O)[C@H]1O[C@@H](n2cnc3c(NCc4cccc(I)c4)nc(Cl)nc32)[C@H](O)[C@@H]1O", "note": "[Chloro-IB-MECA]", "values": [{"measurement": "neuronal differentiation score", "setting": "ReNCell VM [1]; library: LOPAC", "result": "inactive: -1"}, {"measurement": "dopaminergic neuron differentiation score", "setting": "ReNCell VM [2]; library: LOPAC", "result": "inactive: 0"}]}, {"smiles": "Cc1c(Cl)cccc1Nc1ccccc1C(=O)O", "note": "[Tolfenamic acid]", "values": [{"measurement": "neuronal differentiation score", "setting": "ReNCell VM [1]; library: Prestwick", "result": "inactive: 0"}, {"measurement": "dopaminergic neuron differentiation score", "setting": "ReNCell VM [2]; library: Prestwick", "result": "inactive: 0"}]}, {"smiles": "O=C(CCCCC(=O)Nc1c(I)cc(I)c(C(=O)O)c1I)Nc1c(I)cc(I)c(C(=O)O)c1I", "note": "[Iodipamide]", "values": [{"measurement": "neuronal differentiation score", "setting": "ReNCell VM [1]; library: Prestwick", "result": "inactive: 0"}, {"measurement": "dopaminergic neuron differentiation score", "setting": "ReNCell VM [2]; library: Prestwick", "result": "inactive: 0"}]}, {"smiles": "CC(C)c1onc(-c2c(Cl)cccc2Cl)c1COc1ccc(/C=C/c2cccc(C(=O)O)c2)c(Cl)c1", "values": [{"measurement": "neuronal differentiation score", "setting": "ReNCell VM [1]; library: Tocriscreen", "result": "inactive: 0"}, {"measurement": "dopaminergic neuron differentiation score", "setting": "ReNCell VM [2]; library: Tocriscreen", "result": "inactive: 0"}]}]}
